Source: article PMC6616311, “Reconstitution of Microtubule Nucleation In Vitro Reveals Novel Roles for Mzt1” (Current Biology, 2019)
Results are given in words; binding and its absence hold for the method and conditions named. In cells and extracts the contact can be indirect. Some entries that bind do so weakly or less than the wild type. Tags and fused reporters may be left off the sequences shown.

Tests used:
[1] = target: T1, Mto1/2[bonsai]^GST-Mto1[bonsai] (S. pombe) (UniProt O94488+Q9USP7); test: pull-down; glutathione agarose purification from High Five cells coexpressing GST-Mto1[bonsai], Mto2 and untagged γ-TuSC in the absence of Mzt1; HB100, overnight 4°C; SDS-PAGE and western blot
T1 sequence 1: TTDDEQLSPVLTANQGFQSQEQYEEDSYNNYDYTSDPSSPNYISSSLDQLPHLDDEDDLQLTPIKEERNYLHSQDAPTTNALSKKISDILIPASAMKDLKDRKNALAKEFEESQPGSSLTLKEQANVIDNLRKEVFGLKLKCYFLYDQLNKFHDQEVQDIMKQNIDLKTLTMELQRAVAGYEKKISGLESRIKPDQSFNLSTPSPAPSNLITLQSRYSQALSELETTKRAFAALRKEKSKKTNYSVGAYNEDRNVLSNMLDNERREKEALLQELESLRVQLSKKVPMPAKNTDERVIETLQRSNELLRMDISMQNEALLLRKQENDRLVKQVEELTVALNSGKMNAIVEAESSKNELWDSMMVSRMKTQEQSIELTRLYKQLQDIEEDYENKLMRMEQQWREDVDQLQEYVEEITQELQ
T1 sequence 2: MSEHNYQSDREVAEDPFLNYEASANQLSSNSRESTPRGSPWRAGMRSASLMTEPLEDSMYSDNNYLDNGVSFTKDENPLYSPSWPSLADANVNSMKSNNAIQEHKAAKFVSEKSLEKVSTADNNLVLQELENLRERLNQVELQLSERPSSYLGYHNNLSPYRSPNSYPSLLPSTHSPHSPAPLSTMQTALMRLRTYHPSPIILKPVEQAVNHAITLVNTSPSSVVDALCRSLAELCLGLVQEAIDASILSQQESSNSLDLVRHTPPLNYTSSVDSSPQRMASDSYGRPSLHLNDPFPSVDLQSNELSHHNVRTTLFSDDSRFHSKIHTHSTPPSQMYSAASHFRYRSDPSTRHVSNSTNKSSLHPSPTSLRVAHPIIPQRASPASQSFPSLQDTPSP

[2] = target: T1, Mto1/2[bonsai]^GST-Mto1[bonsai] (S. pombe); test: pull-down; glutathione agarose purification from High Five cells coexpressing GST-Mto1[bonsai], Mto2, untagged γ-TuSC and Mzt1; HB100, overnight 4°C; SDS-PAGE and western blot
[3] = target: T2, Mto1/2[bonsai]^Strep-Mto1[bonsai] (S. pombe) (UniProt O94488+Q9USP7); test: pull-down; Strep-Tactin Sepharose purification from High Five cells coexpressing Strep-Mto1/2[bonsai] and untagged γ-TuSC in the absence of Mzt1; overnight 4°C; SDS-PAGE and western blot
T2 sequence 1: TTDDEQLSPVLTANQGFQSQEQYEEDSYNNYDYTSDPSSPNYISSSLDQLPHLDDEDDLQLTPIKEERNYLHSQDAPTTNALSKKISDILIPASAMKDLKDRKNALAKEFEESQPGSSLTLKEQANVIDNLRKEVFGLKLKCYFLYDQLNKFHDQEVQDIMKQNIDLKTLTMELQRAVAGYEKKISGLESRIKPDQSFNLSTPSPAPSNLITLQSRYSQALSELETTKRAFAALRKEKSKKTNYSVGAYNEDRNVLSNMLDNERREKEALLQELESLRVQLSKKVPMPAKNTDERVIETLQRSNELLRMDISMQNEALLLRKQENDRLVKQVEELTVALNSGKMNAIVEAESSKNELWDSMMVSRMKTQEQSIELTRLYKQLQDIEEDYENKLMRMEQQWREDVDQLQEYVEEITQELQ
T2 sequence 2: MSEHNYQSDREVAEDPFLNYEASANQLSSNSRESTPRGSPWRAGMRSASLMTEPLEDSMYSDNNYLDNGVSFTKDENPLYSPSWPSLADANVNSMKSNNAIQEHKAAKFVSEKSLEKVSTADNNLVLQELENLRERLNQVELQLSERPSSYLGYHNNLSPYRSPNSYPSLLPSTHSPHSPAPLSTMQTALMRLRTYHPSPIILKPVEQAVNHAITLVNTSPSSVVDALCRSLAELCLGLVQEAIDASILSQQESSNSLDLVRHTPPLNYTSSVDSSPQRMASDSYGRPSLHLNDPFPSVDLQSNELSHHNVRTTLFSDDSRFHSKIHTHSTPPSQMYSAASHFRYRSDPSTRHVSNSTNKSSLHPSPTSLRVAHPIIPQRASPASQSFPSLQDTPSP

[4] = target: T2, Mto1/2[bonsai]^Strep-Mto1[bonsai] (S. pombe); test: pull-down; Strep-Tactin Sepharose purification from High Five cells coexpressing Strep-Mto1/2[bonsai], untagged γ-TuSC and Mzt1; overnight 4°C; SDS-PAGE and western blot

Measured: binding

B1: Alp6 (untagged) (protein, UniProt Q9USQ2 1-832)
chain: MSEIHVKTALSRLADKYLQNSKNPSVPYTIETIVSFFQEIIHSISPDTFQLDIDDILYKIYSKIPPEENNDALFSKLSNLVSRLKSQTVIHNKSQILYFLYLLSPISQSSRDVSSHLLDESISNPINIPSTEVESSNFGQTRYDQVPENPQITDWDEGLENESSISIAHDSSRLNRSTETSSVQHTLITEADLLSSISYVLQGISTEYVQFKNELALLSKRIPVQYLLQMRALSETGLLYQELKVFSNYDPSVSQSIDGDNVSKAFINDQSLALQSLKSVISKELTNFLALIASLDSQIRADASLEKPMVTIRRCIAWTQVAKLKLRILSSVVNDNMNQENKKRLIQVVSKYNVHGDPLIQELSDKILTEITGPLYEMIENWIYKGELVDPYQEFFVKEKNGSESHDHQGQGDVVWKGKYFLDKELIPSFLSEELVDKIFLIGKSLNFARYGCGDFDWAQEHYQKLVKKLSYRDPHSLETVVDKAYTESINHLVYLMEEVFHLTDHLKAIKKYLLLGQGDFVDLLMESLGNSLDQPANTLFRHNLTASLESAIRSSNASYEPEYVLKRLDARLLELSHGETGWDVFTLEYKVDSPINVIITPYCSRQYLKIFNFLWRLKRIEFALAHSWRRVNLGERNVFRNLDYTKFEWHFVSCHLAEMIHFVCQLQYYILFEVIEISWQELQLAMEKPNATLDTYIEAHEKYVTSITHKGLLGGGKSRNEDSFLHQLHDILKVILNFHDAIELLYNFSCSLSNRIRINVPISTDALAAQYTPIKNELSNFTEEFQVRLQKLLHGLASHKDPEMRFLSVRLNYNEFYVSHRRRHDKDVTSQ
binds: all assays above

B2: Alp4 (untagged) (natural protein, S. pombe, UniProt Q9Y705 1-784, looked up)
chain: MVRSISSVLAKEESENGSPIPALEEGSVYHVSLKSEGVSPFSDRIQLNYLYDGKTFSDPSNLNIHQQEACLINELLNAFMGMEGVFVHLQDMKASSEFETIIMPPSFYILPGFDLGIKDIASEMLEMGSHYLSITAFIESRSHFEYGFVNHALCAALRKFVMDYVVLIMQCENQSRIDPNFSLQTLRLYTLPTSRSLRQVYLILRDLLLSMEKNASSSDDLGLSNIDDLLEQLNEGNDISHVVNATRSKKKVCKGGQVISFLTESLTKYAGDPVARKILTYLLREASRPYTKMLNEWIHLGLVNDPYDEFMIKIHKGITSMQLDEDYTDEYWEKRYVIREDQVPPQLLDLQNKVLFAGKYLNVVLECRKGVNNLASLNAKDDTQNQLLWPSTFDDDNFTLNIMNAYVYANESLLQLLQSSQSLYAHLYSLKHYFFLDQSDFFTTFLDNAQHELRKPAKYISITKLQSQLDLALRQPGTITATDPHKEYVTVEVNQTSLIDWLMHIVSISGLEEGTSSQGNEVWNESITKQADVGNETRNFESEHNRSTQGTSKVGSDKDINGFETMQLCYKVPFPLSLILSRKAIIRYQLLFRYFLLLRHVEMQLENSWVQHSKNSAWRLNSSNAKIEQWKRNSWLLRTRMLSFVQKIIYYTTSEVIETHWGKFMGELENARTVDNLMQEHIDFLDTCLKECMLTNSRLLKVQSKLLNTCAMFASYTSTFTRSLYLLENSEESFDEGRMDKMEEILRRYEDSFSRHLKSLVNACNYFASTETAALLSLVMKLTG
notes: Alp4, S. pombe γ-TuSC protein, homolog of human GCP2; also called homolog of human GCP2; source: High Five insect cells (MultiBac baculovirus), coexpressed with partners; in lysate, and co-purified in complexes
binds: all assays above

B3: γ-tubulin (Gtb1), untagged (natural protein, S. pombe, UniProt P25295 1-446, looked up)
chain: MGREIITLQAGQCGNQIGSQFWQQLCLEHGIGPDGTLESFATEGVDRKDVFFYQSDDTRYIPRAILIDLEPRVVNNILSDTYGSLYNPENILITKNGGGAGNNWANGYSHAERIFEDIMDMIDREADGSDSLEGFSLLHSIAGGTGSGLGSFLLERLNDRYPKKIIQTYSVFPNSQSVSDVVVQPYNSLLALKRLTLNADSVVVLDNAALAHIAADRLHTQNPTFHQQNQLVSTVMSASTTTLRYPGYMNNDLVSIIASLIPSPRCHFLLTSYTPFTNQQVEEAKAIRKTTVLDVMRRLLLPKNQMVSVNPSKKSCFISILDIIQGEADPADVHKSLLRIRERRYASFIPWGPASIQVALSKKSPYIKTNHRVSGLMLANHTSIASLFKRTLDQYDRLRKRNAFLEQYKKEAIFEDDLNEFDSSRDVVADLINEYEACEDPNYLSL
notes: γ-tubulin Gtb1 of S. pombe; source: High Five insect cells (MultiBac baculovirus), coexpressed with partners; in lysate, and co-purified in complexes
binds: [2] | [4]
